Test results: PubChem BioAssay (EPA / NIEHS)
The shares of active, inactive and inconclusive entries below differ from those in the screen. Where the call is inconclusive, the potency comes from a doubtful curve fit. The source made the active and inactive calls. How the source made its calls: active means hit-call score of the fitted dose curve at least 0.9, where 1 is the maximum; inconclusive means response in the unintended direction; inactive means score below 0.9.

Amino acid sequences for entries named in this document (tags omitted). A change or cut given only in a name is not applied to a line headed by its entry.
UniProt Q07869: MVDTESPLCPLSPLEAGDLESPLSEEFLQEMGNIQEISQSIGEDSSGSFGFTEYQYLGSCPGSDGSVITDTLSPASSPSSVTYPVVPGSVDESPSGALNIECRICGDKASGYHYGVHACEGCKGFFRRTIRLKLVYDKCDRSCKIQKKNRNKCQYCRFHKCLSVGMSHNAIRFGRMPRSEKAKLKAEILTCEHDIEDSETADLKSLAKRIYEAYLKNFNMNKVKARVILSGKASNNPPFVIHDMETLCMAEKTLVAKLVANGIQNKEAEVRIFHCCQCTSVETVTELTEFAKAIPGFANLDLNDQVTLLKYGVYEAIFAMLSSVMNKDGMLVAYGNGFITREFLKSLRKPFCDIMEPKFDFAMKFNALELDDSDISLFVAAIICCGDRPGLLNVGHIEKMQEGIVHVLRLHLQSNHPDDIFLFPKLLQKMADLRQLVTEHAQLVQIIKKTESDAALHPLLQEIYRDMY

target: human Peroxisome Proliferator-activated Receptor alpha (PPARa), PPARA (gene 5465) (UniProt Q07869); assay: ATG_PPARa_TRANS: Attagene TRANS-FACTORIAL HepG2 Assay for human Peroxisome Proliferator-activated Receptor alpha (PPARa) (AID 2283001);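 on AC50: potency for gain of reporter signal over DMSO so agonist or activator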
Experimental: ATG_TRANS is a cell-based, multiplexed-readout assay that uses HepG2, a human liver cell line, with measurements taken at 24 hours after chemical dosing in a 24-well plate.ATG_PPARa_TRANS is one of 30 assay component(s) measured or calculated from the ATG_TRANS assay. It is designed to make measurements of mRNA induction, a form of inducible reporter, as detected with fluorescence intensity signals by Reverse transcription polymerase chain reaction (RT-PCR) and Capillary electrophoresis technology.Data from the assay component ATG_PPARa_TRANS was analyzed into 1 assay endpoint. This assay endpoint, ATG_PPARa_TRANS, was analyzed in the positive analysis fitting direction relative to DMSO as the negative control and baseline of activity. Using a type of inducible reporter, measures of mRNA for gain-of-signal activity can be used to understand the reporter gene at the transcription factor-level as they relate to the gene PPARA. Furthermore, this assay endpoint can be referred to as a primary readout, because this assay has produced multiple assay endpoints where this one serves a reporter gene function. To generalize the intended target to other relatable targets, this assay endpoint is annotated to the nuclear receptor intended target family, where the subfamily is non-steroidal.
Human liver HepG2 cells are transiently transfected with multiple reporter transcription units (MRTUs) in 6-well plates using FuGene 6 reagent (Roche; 3 ml FuGene/1 mg DNA). The MRTU constructs are regulated by a cis-regulating element (promoter). […] A major difference between the CIS and TRANS system is that in CIS activities of endogenous TFs are measured, whereas the TRANS assay evaluates changes in activities of exogenous, chimeric NR-Gal4 proteins. […] At the end of 24 hour incubation, total RNA was isolated using TriZol reagent (Invitrogen). The isolated RNA is then reverse-transcribed using oligo(dT) primer and Mo-MLV reverse transcriptase (Invitrogen) with DNAse I (Ambion) treatment for 30 min. The one-tenth of the produced cDNA was amplified by PCR using Taq DNA polymerase (Invitrogen) and two reporter sequence-specific primers. The PCR products were fluorescently labeled by primer extension with 6-arboxyfluorescein (6-FAM) 5'-labeled reporter sequence-specific primer (2 min at 95 C, 20 s at 68 C and 10 min at 72 C) and these products were digested with 5U of HpaI (New England Biolabs) for 2h at 37 C. The fragments were purified using Qiaquick PCR columns (Qiagen), analyzed on an ABI 3130xL genetic analyzer (Applied Biosystems) with peak positions identified by using a set of X-rhodamine (ROX)-labeled MapMarker1000 molecular weight standards (BioVentures). The raw capillary electrophoresis data was processed using Attagraph software (Attagene).

Compound | AC50 | outcome
Cc1cc(=O)[nH]o1 | inconclusive: 28.9 µM | –
O=C(NC(=O)c1c(F)cccc1F)Nc1cc(Cl)c(Oc2ncc(C(F)(F)F)cc2Cl)c(Cl)c1 | inconclusive: 0.0794 µM | –
CC(C)(C1CCC(O)CC1)C1CCC(O)CC1 (stereo not given) | inconclusive: 5.59 µM | –
Cc1cc(C)nc(NC(=O)NS(=O)(=O)c2ccccc2C(=O)OC2COC2)n1 | inconclusive: 50 µM | –
COc1ccc(N)cc1 | inconclusive: 26.2 µM | inactive
CC1CCCC1.[C-]#[O+].[C-]#[O+].[C-]#[O+].[Mn] | – | inactive
c1ccc2c(c1)oc1ccccc12 | – | inactive
CCOP(O)OCC | inconclusive: 0.00914 µM | –
CN(C)[C@@H]1C(=O)C(C(N)=O)=C(O)[C@@]2(O)C(=O)C3=C(O)c4c(O)cccc4[C@@](C)(O)[C@H]3[C@H](O)[C@@H]12 | – | inactive
CCCCCCCCCCCCc1cccc(S(=O)(=O)O)c1 | active: 30 µM | –
CC(C)C1(C)N=C(c2ncccc2C(=O)O)NC1=O (stereo not given) | – | inactive
Cc1cccc([N+](=O)[O-])c1 | inconclusive: 0.529 µM | –
OCC(c1ccc(Cl)cc1)c1ccc(Cl)cc1 | active: 55 µM | –
Clc1nc(Cl)nc(Cl)n1 | – | inactive

Compound | AC50 | outcome
CCCCOC(C)=O | inconclusive: 1.72 µM | inactive
CC(C)[N+](=O)[O-] | inconclusive: 100 µM | –
CCOP(=S)(OCC)SCCSCC | – | inactive
O=NN1CCCCCC1 | inconclusive: 100 µM | –
N#CN | – | inactive
COC(=O)c1ccccc1N | inconclusive: 27.2 µM | –
CC(C)(c1ccc(O)c(-c2ccccc2)c1)c1ccc(O)c(-c2ccccc2)c1 | inconclusive: 3.71 µM | –
O=c1[nH]c2ccccc2n1C1CCN(CCCC(c2ccc(F)cc2)c2ccc(F)cc2)CC1 | inconclusive: 6.28 µM | –
O=C(O)c1cc(I)cc(I)c1I | active: 17.3 µM | –
Cc1cccc(N)c1N | – | inactive
CCSC(C)CC1CC(=O)C(C(CC)=NOC/C=C/Cl)=C(O)C1 (stereo not given) | inconclusive: 23.5 µM | –
CCCCOC(=O)c1ccccc1C(=O)O | – | inactive
CCCN(CCC)c1c([N+](=O)[O-])cc(C(C)C)cc1[N+](=O)[O-] | – | inactive
NC(=S)Nc1ccccc1 | – | inactive

Single records, from the list above. Values in the order: AC50 | outcome
CCCCOC(C)=O is entered as inconclusive: 1.72 µM | inactive
NC(=S)Nc1ccccc1 is entered as – | inactive
